These are yes or no findings as the source states them, for the method shown. Some entries that bind do so weakly or less than the wild type.
Biological target: rat tail collagen I (rat) (UniProt P02454+P02466)
Assay: ELISA; foldon-stabilised collagen II library peptides and rat-tail collagen I coated at 10 ug/ml (500 ng per well) overnight at 4 °C; 200 nM pentameric COMP in TBS-T with 0.25% BSA, 1 h, room temperature; detected with anti-COMP antibody; both purified

Amino acid sequences for entries named in this document (tags omitted). A change or cut given only in a name is not applied to a line headed by its entry. Residues count along the entry.
UniProt P02454: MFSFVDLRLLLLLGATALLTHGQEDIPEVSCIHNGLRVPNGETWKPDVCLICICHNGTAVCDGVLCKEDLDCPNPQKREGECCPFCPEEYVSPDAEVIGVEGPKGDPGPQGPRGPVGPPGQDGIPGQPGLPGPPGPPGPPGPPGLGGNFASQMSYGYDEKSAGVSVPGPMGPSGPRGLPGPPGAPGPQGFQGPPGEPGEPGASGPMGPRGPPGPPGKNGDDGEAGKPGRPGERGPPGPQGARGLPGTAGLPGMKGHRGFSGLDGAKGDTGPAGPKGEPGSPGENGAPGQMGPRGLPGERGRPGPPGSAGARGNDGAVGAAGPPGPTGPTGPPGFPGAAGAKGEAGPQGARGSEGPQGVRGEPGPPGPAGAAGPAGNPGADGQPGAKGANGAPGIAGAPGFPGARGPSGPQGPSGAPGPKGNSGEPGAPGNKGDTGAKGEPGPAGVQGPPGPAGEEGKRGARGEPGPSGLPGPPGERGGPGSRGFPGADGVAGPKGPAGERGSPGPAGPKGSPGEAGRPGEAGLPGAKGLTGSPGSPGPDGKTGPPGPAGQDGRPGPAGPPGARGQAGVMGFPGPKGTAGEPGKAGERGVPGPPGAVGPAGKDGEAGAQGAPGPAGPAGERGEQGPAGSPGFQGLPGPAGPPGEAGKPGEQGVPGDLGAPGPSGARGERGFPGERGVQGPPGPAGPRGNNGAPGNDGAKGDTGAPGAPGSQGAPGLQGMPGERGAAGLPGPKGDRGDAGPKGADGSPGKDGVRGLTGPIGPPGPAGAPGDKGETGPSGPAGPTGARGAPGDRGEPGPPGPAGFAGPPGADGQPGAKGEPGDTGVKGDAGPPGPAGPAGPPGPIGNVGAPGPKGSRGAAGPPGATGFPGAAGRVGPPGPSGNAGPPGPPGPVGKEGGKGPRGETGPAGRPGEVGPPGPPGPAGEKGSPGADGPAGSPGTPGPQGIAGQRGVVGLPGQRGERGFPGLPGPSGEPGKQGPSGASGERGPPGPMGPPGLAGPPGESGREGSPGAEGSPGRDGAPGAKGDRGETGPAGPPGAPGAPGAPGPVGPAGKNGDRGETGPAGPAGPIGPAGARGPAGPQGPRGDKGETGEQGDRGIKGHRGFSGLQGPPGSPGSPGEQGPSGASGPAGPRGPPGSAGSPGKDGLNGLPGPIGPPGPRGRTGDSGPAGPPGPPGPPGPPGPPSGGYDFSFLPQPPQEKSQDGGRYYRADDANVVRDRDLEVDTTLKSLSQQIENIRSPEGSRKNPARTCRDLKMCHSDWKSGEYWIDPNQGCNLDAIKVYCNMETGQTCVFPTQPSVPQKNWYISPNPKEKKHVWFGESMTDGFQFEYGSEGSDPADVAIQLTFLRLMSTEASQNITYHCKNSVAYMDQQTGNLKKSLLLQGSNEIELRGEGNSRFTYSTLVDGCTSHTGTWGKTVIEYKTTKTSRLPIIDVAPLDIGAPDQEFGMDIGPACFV
UniProt P02466: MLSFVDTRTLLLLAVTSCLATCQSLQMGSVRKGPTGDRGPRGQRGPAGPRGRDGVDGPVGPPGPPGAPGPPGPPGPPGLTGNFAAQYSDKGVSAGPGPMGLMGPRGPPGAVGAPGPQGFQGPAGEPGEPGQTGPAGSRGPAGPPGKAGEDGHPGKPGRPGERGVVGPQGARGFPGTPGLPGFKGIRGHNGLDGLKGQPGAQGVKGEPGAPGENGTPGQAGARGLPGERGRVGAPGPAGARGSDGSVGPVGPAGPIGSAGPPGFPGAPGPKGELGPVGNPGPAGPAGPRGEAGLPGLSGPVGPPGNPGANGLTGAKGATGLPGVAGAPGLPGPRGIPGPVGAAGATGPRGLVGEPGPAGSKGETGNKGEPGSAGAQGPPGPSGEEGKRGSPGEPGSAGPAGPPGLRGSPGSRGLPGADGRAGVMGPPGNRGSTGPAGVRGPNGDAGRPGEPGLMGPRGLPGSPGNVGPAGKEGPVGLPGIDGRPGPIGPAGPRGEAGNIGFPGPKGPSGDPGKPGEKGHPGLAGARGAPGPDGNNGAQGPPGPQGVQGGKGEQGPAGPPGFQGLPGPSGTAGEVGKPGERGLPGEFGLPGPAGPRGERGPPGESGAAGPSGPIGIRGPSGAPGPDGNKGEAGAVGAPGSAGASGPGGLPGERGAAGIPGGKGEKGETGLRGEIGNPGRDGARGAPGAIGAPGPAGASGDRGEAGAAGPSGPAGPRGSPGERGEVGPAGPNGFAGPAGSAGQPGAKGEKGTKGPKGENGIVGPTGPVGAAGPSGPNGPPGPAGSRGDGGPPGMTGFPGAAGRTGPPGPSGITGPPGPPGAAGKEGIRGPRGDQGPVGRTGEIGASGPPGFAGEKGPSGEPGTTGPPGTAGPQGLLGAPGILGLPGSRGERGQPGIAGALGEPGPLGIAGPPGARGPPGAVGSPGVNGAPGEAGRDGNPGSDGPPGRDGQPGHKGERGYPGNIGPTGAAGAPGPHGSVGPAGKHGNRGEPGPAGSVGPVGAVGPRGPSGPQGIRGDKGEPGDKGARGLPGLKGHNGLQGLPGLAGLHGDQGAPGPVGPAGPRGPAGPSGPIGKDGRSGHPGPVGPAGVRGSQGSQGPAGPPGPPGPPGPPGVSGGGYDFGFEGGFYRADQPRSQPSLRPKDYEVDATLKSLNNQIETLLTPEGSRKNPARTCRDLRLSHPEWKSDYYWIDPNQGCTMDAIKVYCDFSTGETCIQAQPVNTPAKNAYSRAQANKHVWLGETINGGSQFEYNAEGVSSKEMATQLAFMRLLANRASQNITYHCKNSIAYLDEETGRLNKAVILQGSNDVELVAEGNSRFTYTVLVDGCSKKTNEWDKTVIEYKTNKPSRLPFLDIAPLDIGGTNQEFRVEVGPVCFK
UniProt P49747, residues 21-757: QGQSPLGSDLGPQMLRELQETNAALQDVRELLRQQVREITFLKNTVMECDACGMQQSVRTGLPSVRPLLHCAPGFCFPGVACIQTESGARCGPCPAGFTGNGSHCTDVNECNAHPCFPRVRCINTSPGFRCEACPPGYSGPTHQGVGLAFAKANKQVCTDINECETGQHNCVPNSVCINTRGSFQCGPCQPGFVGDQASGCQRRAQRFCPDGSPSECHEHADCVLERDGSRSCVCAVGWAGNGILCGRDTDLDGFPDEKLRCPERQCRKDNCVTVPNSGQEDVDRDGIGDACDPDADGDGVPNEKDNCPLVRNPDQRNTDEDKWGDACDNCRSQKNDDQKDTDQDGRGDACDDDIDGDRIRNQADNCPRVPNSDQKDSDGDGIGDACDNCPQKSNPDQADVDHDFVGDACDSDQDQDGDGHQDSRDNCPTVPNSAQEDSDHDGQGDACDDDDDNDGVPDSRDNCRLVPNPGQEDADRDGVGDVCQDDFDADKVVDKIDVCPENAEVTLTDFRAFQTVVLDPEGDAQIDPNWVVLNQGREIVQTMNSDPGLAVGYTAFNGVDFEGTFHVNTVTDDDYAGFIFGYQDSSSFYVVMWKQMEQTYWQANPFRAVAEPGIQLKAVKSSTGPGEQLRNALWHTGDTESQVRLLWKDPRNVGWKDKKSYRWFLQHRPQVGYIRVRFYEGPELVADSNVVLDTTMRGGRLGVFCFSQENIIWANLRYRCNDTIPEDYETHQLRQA

- binding: binds
Substance: cartilage oligomeric matrix protein (COMP), wild type, pentameric (from UniProt P49747 21-757)

Reference: PMC6249252, “COMP and TSP-4 interact specifically with the novel GXKGHR motif only found in fibrillar collagens” (Scientific Reports, 2018)
